Source: PMC12434091, “Real-time monitoring with iTLR4 assay identifies ligand-dependent TLR4-TLR4 conformational dynamics” (Frontiers in Immunology, 2025)
No constants are given. Whether binding was seen depends on the method and setting. In cells and extracts the contact can be indirect. Some results given as binding are weak or reduced against the parent protein; the word gives no strength.

Sequences of proteins named here, by UniProt entry; tags and fusion partners are left off.
UniProt P35372: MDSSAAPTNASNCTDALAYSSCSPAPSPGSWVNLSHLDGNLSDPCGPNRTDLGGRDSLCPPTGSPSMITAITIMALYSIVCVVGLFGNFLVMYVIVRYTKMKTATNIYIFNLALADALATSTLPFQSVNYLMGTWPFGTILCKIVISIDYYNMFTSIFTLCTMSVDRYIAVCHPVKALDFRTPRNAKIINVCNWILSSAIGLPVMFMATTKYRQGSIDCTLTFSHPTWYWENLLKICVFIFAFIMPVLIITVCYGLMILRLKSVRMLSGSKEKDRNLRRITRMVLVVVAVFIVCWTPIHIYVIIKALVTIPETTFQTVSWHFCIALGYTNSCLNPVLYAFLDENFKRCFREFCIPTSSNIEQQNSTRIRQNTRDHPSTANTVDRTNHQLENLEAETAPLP
UniProt P32121: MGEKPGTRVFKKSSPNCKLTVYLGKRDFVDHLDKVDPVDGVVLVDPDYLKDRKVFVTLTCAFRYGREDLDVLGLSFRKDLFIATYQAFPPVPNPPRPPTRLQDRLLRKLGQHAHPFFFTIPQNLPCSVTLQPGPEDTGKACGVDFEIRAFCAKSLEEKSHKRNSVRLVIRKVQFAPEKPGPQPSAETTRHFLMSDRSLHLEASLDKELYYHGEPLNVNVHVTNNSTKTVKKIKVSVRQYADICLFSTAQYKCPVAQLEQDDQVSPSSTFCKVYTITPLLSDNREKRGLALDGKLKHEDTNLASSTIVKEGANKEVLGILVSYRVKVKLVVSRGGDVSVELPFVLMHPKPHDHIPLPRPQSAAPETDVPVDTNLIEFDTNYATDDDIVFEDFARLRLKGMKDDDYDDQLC

Biological target: FLAG-MOP-Nluc (mu opioid receptor-Nanoluciferase) (UniProt P35372)
Assay: FRET or BRET; live HEK293 cells co-transfected with Flag-MOPR-Nluc (donor), β-arrestin-2-Venus (acceptor) and GRK2; Nano-Glo substrate, 37°C; DAMGO-induced BRET signal, alone or with 100 µM (+)- or (-)-naloxone

Question: For “β-arrestin 2-Venus (from UniProt P32121 1-409)”, which binding is on record?
Answer: binds
